This passage reports binding results from PMC9117277.

By UniProt entry, the sequences of proteins in these tests, tags left out. Residues count along the entry.
UniProt Q8JZU2, residues 14-311: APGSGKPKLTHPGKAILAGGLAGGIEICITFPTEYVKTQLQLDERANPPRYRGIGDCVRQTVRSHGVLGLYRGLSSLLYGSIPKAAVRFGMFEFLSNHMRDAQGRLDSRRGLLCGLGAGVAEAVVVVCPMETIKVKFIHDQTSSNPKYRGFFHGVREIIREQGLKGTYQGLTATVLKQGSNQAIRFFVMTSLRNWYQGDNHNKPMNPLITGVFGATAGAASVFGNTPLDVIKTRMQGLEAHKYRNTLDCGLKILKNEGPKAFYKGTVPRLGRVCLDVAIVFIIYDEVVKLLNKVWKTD

No constants are given. Whether binding was seen depends on the method and setting. Binding seen in cells or lysates may run through a third protein. These calls come from enrichment with a bait or labelling near it, and not all partners need be listed.

In the experiment the target is T1, IRAKM (mouse (endogenous in primary adipocytes)) (UniProt Q8K4B2).
T1 sequence: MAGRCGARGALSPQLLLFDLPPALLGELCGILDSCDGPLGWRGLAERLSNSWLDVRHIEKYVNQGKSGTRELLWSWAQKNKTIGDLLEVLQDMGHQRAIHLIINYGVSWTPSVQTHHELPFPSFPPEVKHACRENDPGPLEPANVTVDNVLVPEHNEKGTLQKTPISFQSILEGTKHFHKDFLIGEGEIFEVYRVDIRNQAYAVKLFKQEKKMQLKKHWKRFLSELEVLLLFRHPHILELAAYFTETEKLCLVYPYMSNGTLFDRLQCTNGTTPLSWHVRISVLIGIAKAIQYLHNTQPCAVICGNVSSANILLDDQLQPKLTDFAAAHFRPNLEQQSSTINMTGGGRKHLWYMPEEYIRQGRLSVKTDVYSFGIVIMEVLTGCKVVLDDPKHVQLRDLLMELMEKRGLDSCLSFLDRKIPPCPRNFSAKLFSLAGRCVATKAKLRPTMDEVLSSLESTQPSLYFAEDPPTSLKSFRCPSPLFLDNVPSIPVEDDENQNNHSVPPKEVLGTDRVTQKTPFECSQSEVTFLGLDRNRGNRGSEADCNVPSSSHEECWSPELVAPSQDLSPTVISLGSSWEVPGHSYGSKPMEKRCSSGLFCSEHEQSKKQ
The experiment is described as follows: affinity purification with mass spectrometry; immunoprecipitation with anti-IRAKM antibody from lysates of untreated and IL-1β-treated (1 h) primary adipocytes; in-solution digestion, LC-MS/MS; n = 1.

With “mitochondrial citrate carrier solute carrier family 25 member 1 (Slc25a1) (from UniProt Q8JZU2 14-311)”, the binding entry is on record as “binds”.
